Assay results: patent US5491128A, “Aglycons of A/16686 antibiotics” (Gruppo Lepetit S.p.A., priority 1988, dated 1996)
Not every detail of the peptide structures is certain; ends, links or a residue may be inferred. *1 amine or outer side, *2 acyl side, *3 side chain or, on linkers, in order; H or OH if unused. Where a SMILES comes first, the peptide text is derived from it. Bridges are numbered along the chain shown (N, C = ends). [ ]: non-standard residue; d: D form. The star is where a group is joined. ξ: configuration not given here. ξPhg(3-Cl-4-OH) = NC(C(=O)O)c1ccc(O)c(Cl)c1; X2 = NC(=O)C(O[*:3])C(N[*:1])C(=O)[*:2]; Hpg = N[CH](C(=O)O)c1ccc(O)cc1; Orn = NCCC[CH](N)C(=O)O; X1 = CC(C)CC=CC=CC(=O)*

Test system: S. pyogenes C 203 SKF 13400
Test: Mice infected intraperitoneally with S. pyogenes (septicemia), ED50
Assay type: in vivo
Conditions: i.p. infection, treated subcutaneously once immediately after infection, survival on the 10th day, Spearman and Karber

CC(C)CC=CC=CC(=O)NC(CC(N)=O)C(=O)NC1C(=O)NC(c2ccc(O)cc2)C(=O)NC(CCCN)C(=O)NC(C(C)O)C(=O)NC(c2ccc(O)cc2)C(=O)NC(c2ccc(O)cc2)C(=O)NC(C(C)O)C(=O)NC(Cc2ccccc2)C(=O)NC(CCCN)C(=O)NC(c2ccc(O)cc2)C(=O)NC(C(C)O)C(=O)NC(c2ccc(O)cc2)C(=O)NCC(=O)NC(CC(C)C)C(=O)NC(C)C(=O)NC(c2ccc(O)c(Cl)c2)C(=O)OC1C(N)=O (stereo not shown) [Factor A2 aglycon, A/16686 factor A2 aglycon] (X1-N[X2][Hpg][Orn]T[Hpg][Hpg]TF[Orn][Hpg]T[Hpg]GLA[ξPhg(3-Cl-4-OH)]; ester 2-C; configuration not given here)
ED50: 0.11 mg/kg
